Measured values: US20240238238A1, “Isotopically Modified Composition and Therapeutic Uses Thereof” (BioJiva LLC, priority 2018, published 2024)

Test: Plasma PK by LC-MS (D2-LA, LA, D2-AA) in the phase I/II trial
Protocol: PK samples were obtained predose and at 0.5, 1, 1.5, 2, 4, 6, 8, 12, 16, and 24 hours following the first dose and 14, 28, 29, 30, and 31 days following enrollment. The samples taken on Days 29-31 represent Isotopically modified polyunsaturated fatty acid, ester, thioester, amide, or other prodrug thereof (e.g., 11,11,D2-linoleic acid ethyl ester) washout levels. D2-LA, linoleic acid (LA), deuterated arachidonic acid (D2-AA), and arachidonic acid (ARA) concentrations were measured in the samples.
Plasma concentrations of 11,11-D2-linoleic acid ethyl ester (combined free acid form and ester form) and non-deuterated analogs were determined by liquid chromatography and mass spectrometry (LCMS). Blood was collected in K2EDTA anticoagulant tubes, centrifuged to obtain plasma and red blood cells (RBCs), and frozen until analyzed. The samples were hydrolyzed to free fatty acids and analyzed by high performance LC-MS by Good Laboratory Practice validated methods. Low-intensity D2 and high-intensity H2 signals were measured with high accuracy at Ricerca Biosciences, using an AB SCIEX 6500 tandem-quadrupole MS. The 13C2 isotopomer signal was used as a calibration standard for 11,11,D2-linoleic acid ethyl ester; a polydeuterated internal standard was utilized. The enzymatic elongation/desaturation metabolite, 13,13-D2-arachidonic acid (D2-AA), was also measured, in plasma and red blood cells (RBCs).

SMILES: [2H]C([2H])(/C=C\CCCCC)/C=C\CCCCCCCC(=O)OCC [11,11-D2-linoleic acid ethyl ester]
- Plasma AUC for H2-LA (non-deuterated LA) (day 28, high dose (4.5 g BID), active treatment subjects): 10,275 μg*h/mL
- Day 28 plasma AUC for H2-LA as % of baseline AUC (high dose (4.5 g BID), baseline AUC 15,310 μg*h/mL): approximately 67%
- Change of plasma LA concentrations from predose baseline (low dose (1.8 g QD), days 1 and 28): did not appear to change
